Measurements taken from publication PMC7819943, “Rice protein-binding microarrays: a tool to detect cis-acting elements near promoter regions in rice”.
Some of the results follow.

Each sequence was assayed against T1, OsSMF1 (Oryza sativa, UniProt Q6ZLB0 1-436) (assay: protein-binding microarray (RPBM); PBS, 2% BSA, 51.3 ng/ul salmon testes DNA, 50 uM zinc acetate, 200 nM TF, 25 C, 1 h; high values mean tight binding). Settings: protein: recombinant; tags: N-terminal polyhistidine and DsRed monomer fusion (pET32a); chain copies: 2; label: CyDye5-dUTP incorporated in the synthesized complementary strand; 3' TTTTT single-stranded linker to array surface; dsDNA, one strand shown.
T1 sequence: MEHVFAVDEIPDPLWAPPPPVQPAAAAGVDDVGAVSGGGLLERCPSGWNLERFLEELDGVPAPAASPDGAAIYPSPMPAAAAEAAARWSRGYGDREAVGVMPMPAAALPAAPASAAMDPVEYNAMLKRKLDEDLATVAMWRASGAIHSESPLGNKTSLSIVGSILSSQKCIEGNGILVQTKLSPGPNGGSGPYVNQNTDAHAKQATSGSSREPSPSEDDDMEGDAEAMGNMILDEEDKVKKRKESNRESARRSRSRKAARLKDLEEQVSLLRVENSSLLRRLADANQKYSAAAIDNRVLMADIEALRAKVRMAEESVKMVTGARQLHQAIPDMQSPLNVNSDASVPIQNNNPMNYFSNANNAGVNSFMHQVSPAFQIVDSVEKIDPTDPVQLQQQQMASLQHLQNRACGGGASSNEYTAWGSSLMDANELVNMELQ
How it was run: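 An Axon 4000B scanner gave the binding signal as per-feature fluorescence intensity in arbitrary units. This followed washing of a custom Agilent array that had been incubated for 1 h at 25 °C with 200 nM protein in PBS, 2% BSA, salmon testes DNA and 50 µM zinc acetate. The proteins were transcription factors fused at the N-terminus to polyhistidine and DsRed, expressed in E. coli BL21-CodonPlus and purified on Ni–NTA.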

Row | Sequence | binding signal
1 | GATCGAAGCCACGCAACGGCACACCAACCCCGACACAGCACGGAGTCACCTAGTGCAG | 3340 fluorescence intensity (a.u.)
2 | GATAGGAGGGGATAACTTGTTTCATATTTTGTGCCGGGTTCGGAGTCACCTAGTGCAG | 3710 fluorescence intensity (a.u.)
3 | CACATTTAAGGTACGTGATGCATAGGACACAGGGTAAAGTCGGAGTCACCTAGTGCAG | 3280 fluorescence intensity (a.u.)
4 | CGAAGAGGGTGGCACGGGTACGACGGTGCTCGCCGGCGGCCGGAGTCACCTAGTGCAG | 35200 fluorescence intensity (a.u.)
5 | CATAGCCTTTTGCATATGCGTCAAGCGTCTATACGATTCGCGGAGTCACCTAGTGCAG | 3900 fluorescence intensity (a.u.)
6 | CTCGTTTACGAGGGACGGCTGCAGGGTACTGACCGCGCGTCGGAGTCACCTAGTGCAG | 3270 fluorescence intensity (a.u.)
7 | TCTAGAACCTTCCGGAGATCTCTGGAACCGCGTCTCCAACCGGAGTCACCTAGTGCAG | 3710 fluorescence intensity (a.u.)
8 | TTTAGAAATATTATTACATGTCACAGTCCCGGTAACAACACGGAGTCACCTAGTGCAG | 3160 fluorescence intensity (a.u.)
9 | GTTAATTACCCCGGTGTCACTTTCAGTCACCATCACCACTCGGAGTCACCTAGTGCAG | 4920 fluorescence intensity (a.u.)
10 | CCTGCAGCCAGAGCTGCATTTGCTGGGGATTTATACTAGTCGGAGTCACCTAGTGCAG | 3540 fluorescence intensity (a.u.)
11 | GAATCTCGTACCTGCTCCAGTAGTCGTGTCAATTTGGAAACGGAGTCACCTAGTGCAG | 3900 fluorescence intensity (a.u.)
12 | AATGGCGTCACGGAAGGAAGACGAATCGATACCGCTGACTCGGAGTCACCTAGTGCAG | 3840 fluorescence intensity (a.u.)
13 | ATGCTGTCGTACTTCCTATTTGTGACTAATCAGTTGTTTGCGGAGTCACCTAGTGCAG | 4520 fluorescence intensity (a.u.)
14 | TTTCCTTGGAGAATCCAGATCAGCTTCCTAATCACCCTCACGGAGTCACCTAGTGCAG | 4040 fluorescence intensity (a.u.)
15 | TGCAAGGTTGCCACCAATTGACGAACAAGTTATTAGCATGCGGAGTCACCTAGTGCAG | 3430 fluorescence intensity (a.u.)
16 | ATTCTTTGCTTCTTGGTGCTTCCATGTCACCCTACTTTATCGGAGTCACCTAGTGCAG | 5200 fluorescence intensity (a.u.)
17 | GGACGTCTTTAGACTCTAGGTCTACGTCTATGATGTGGATCGGAGTCACCTAGTGCAG | 4450 fluorescence intensity (a.u.)
18 | CTGCGACTGTCGCGGCCATGGCGTCCACCATTCATCATCACGGAGTCACCTAGTGCAG | 3530 fluorescence intensity (a.u.)
19 | CATCCGGTGACTCGGCGCAGCCATTATCCGCCGCCGCCGCCGGAGTCACCTAGTGCAG | 5420 fluorescence intensity (a.u.)
20 | TAAACTTTGGGTCTATATACTACTACCTCCGTCCCATAAACGGAGTCACCTAGTGCAG | 37500 fluorescence intensity (a.u.)
21 | CGTGCCCGTCCCGTCCTCCTCTCCTCTCCTCACCGTCACTCGGAGTCACCTAGTGCAG | 4600 fluorescence intensity (a.u.)

Nothing new here: an excerpt of the list.
Row | Sequence | binding signal
16 | ATTCTTTGCTTCTTGGTGCTTCCATGTCACCCTACTTTATCGGAGTCACCTAGTGCAG | 5200 fluorescence intensity (a.u.)
17 | GGACGTCTTTAGACTCTAGGTCTACGTCTATGATGTGGATCGGAGTCACCTAGTGCAG | 4450 fluorescence intensity (a.u.)
18 | CTGCGACTGTCGCGGCCATGGCGTCCACCATTCATCATCACGGAGTCACCTAGTGCAG | 3530 fluorescence intensity (a.u.)

Following part:

Row | Sequence | binding signal
22 | TGAATATGCAAGTTAAGGGACATGTTATATATGGTATTGTCGGAGTCACCTAGTGCAG | 3240 fluorescence intensity (a.u.)
23 | TCCCAATTCCGCCGCCAATTTCCGGTGCCGACGAGGAGTCCGGAGTCACCTAGTGCAG | 11200 fluorescence intensity (a.u.)
24 | CATACCCTCAGCCACCATTCCACGTCTAACTATATAATATCGGAGTCACCTAGTGCAG | 4100 fluorescence intensity (a.u.)
25 | GGAAGGAGACTGCTTGGTCACTAATTTAATCTGCTACTACCGGAGTCACCTAGTGCAG | 3140 fluorescence intensity (a.u.)
26 | ATTCCCACCCGTGGCTCGTCGCCGCCTCCGCCTCCGCTCCCGGAGTCACCTAGTGCAG | 3560 fluorescence intensity (a.u.)
27 | GCCGCCGCGGCGGGAGGGTCTCCGGCGAGGTCAAGGCCCCCGGAGTCACCTAGTGCAG | 30800 fluorescence intensity (a.u.)
28 | TCTGGCAGTTCCCTTCGGTCAGTTCGGACTTCCGACGTAGCGGAGTCACCTAGTGCAG | 3170 fluorescence intensity (a.u.)
29 | GGCGGCAGACGGCGCGGTCGACCCGCCGTCTGCCACGTCACGGAGTCACCTAGTGCAG | 25500 fluorescence intensity (a.u.)
30 | ATTAACTTGTCCTCGCTCACCAAGGTGCCCACGTCGCTGCCGGAGTCACCTAGTGCAG | 3520 fluorescence intensity (a.u.)
31 | ATCACTGGTGAGGCAAGCTATGCTGCCATTTATCCCTGGGCGGAGTCACCTAGTGCAG | 31200 fluorescence intensity (a.u.)
32 | TCCCAATTGACTAGAGGATGCTTCAGAGATGAAAACATGGCGGAGTCACCTAGTGCAG | 3190 fluorescence intensity (a.u.)
33 | ATCATGGCCGATCTCGCACGGTGGACGTCGCTGACAGGTGCGGAGTCACCTAGTGCAG | 4270 fluorescence intensity (a.u.)
34 | TCGACATAAGGAGGACGAGCGCCGCGTCGTGACGGATGCCCGGAGTCACCTAGTGCAG | 3230 fluorescence intensity (a.u.)
35 | ATGTTTCTAATTTCCCTAGATTCAAGTGACACGTTGCTGACGGAGTCACCTAGTGCAG | 7470 fluorescence intensity (a.u.)
36 | AACTTAATTATATAGTTTAACATCATCATATTTATATTTGCGGAGTCACCTAGTGCAG | 18500 fluorescence intensity (a.u.)
37 | ACTTCCAGGAAAGTACCTCTCCCTGACGTGGGCTTAGATTCGGAGTCACCTAGTGCAG | 9750 fluorescence intensity (a.u.)
38 | AAAACGACCGGTTTTGACGTAAATCCACAAGGCGTTATGACGGAGTCACCTAGTGCAG | 58400 fluorescence intensity (a.u.)
39 | AATCAACTTGACGTGGAGATGAAATCTCCTTTCCTGTCTTCGGAGTCACCTAGTGCAG | 5600 fluorescence intensity (a.u.)
40 | TCTGGTCCCATCTGTCATACACACATTACGTCTTGTAGTCCGGAGTCACCTAGTGCAG | 4560 fluorescence intensity (a.u.)
41 | ATCGATTAGTGCGTGTTGCTCTTGTACACGACGTCCCGGGCGGAGTCACCTAGTGCAG | 3300 fluorescence intensity (a.u.)
42 | CTTACTTTATTATCCAAAATATTTTAAGCACAACTTTTCACGGAGTCACCTAGTGCAG | 35600 fluorescence intensity (a.u.)
